# Record: PubChem BioAssay AID602196 (INSERM, 2012)
# Purpose: 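Genes whose knock-down alters cisplatin killing of lung cancer cells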
# Cells: human A549 lung cancer cells
# Reagents: siRNA pair against human genes
# Timing: 48 h transfection before cisplatin; time from cisplatin to read-out not stated
# Treatment: cisplatin at a dose killing half of control-siRNA cells; exact dose and duration not given
# Detection: 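Cisplatin cell death as a shift from the 50% death seen with control siRNA; siRNAs toxic or growth-blocking alone scored 0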
# Scale: two-siRNA summed score (-2 to +2): higher = both siRNAs protect from cisplatin killing; -2 means both sensitise; mean protection from cisplatin (shift in death) and protection from cisplatin (shift in death), siRNA C: higher = protection from cisplatin killing
# Rule for the call: 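siRNAs harmful alone (LDH or WST-1) get 0; others get +1 for less and -1 for more cisplatin killing; genes are active when the two siRNAs give the same sign, summing to ±2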
# Calls: active = both siRNAs shift cisplatin killing the same way; inactive = no consistent shift, or siRNA harmful alone
# The whole screen tested about 23,000 reagents; shown is a part drawn at random. 455 of them (2%) count as active. 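Active includes both protection and sensitisation; some change values fall well beyond the stated -50 to +50 range.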 Unmarked entries are inactive. Not all columns of the deposit are shown. The record does not give: the amount of reagent.
The opening 3 entries, ahead of the listing:
gene,two-siRNA summed score (-2 to +2),mean protection from cisplatin (shift in death) (%),"protection from cisplatin (shift in death), siRNA C (%)"
OR6N2,0,1.3,-0.7
LCK,0,2.1,8.7
GLUD1,0,6.6,-9

Results, from the first entry:
gene,two-siRNA summed score (-2 to +2),mean protection from cisplatin (shift in death) (%),"protection from cisplatin (shift in death), siRNA C (%)"
OR6N2,0,1.3,-0.7
LCK,0,2.1,8.7
GLUD1,0,6.6,-9
LOC133609,0,5.9,5.7
PIP4P1,0,5.3,-8.2
LOC348938,0,3.5,-0.7
LOC388474,0,13.5,8.9
MIB1,0,7.6,28.3
CWH43,0,-5.7,-9.1
LOC143941,-1,-7.3,4.8
RPAP2,-1,-8.4,-5.2
HOXA13,0,9.4,10.6
COX8C,0,9.7,18
HIBCH,0,3.3,2.2
VEGFA,1,5.3,-7.5
MSRB1P1,0,2.5,-2.2
RDH14,0,-2.2,-8.4
MYH3,1,14.3,14.7
LARS1,0,-3,2.3
CDH4,0,0.1,-5
RHEBL1,0,-0.8,8
FBXO7,1,-0.8,15.3
PSMB9,0,10.8,13.4
NIBAN1,0,12.8,12.1
H1-9P,0,3.7,12.7
SERPINB11,0,7.2,2.5
VAC14,1,12.4,8.9
CD164L2,-1,-9.1,-3.7
RABAC1,0,16.5,18.6
CCL4L1,0,2,7.4
POLR3C,0,1.6,2.4
FZD4,1,16.3,3
B3GALT1,-1,-4.7,-14.8
TARDBP,0,9.1,15.4
LOC440999,-1,-2.1,-10.7
LOC389422,0,9.8,10.6
KRTAP12-2,0,17.2,-1.6
LOC440826,-1,7.6,-10
DCAF7,0,8.2,10.4
NFKB2,0,-1.8,14.1
ANKRD10,1,5.1,10.6
LINC02864,1,5,-1.9
LOC439948,1,13.2,8.2
GABRG3,1,11.8,19.3
APOBEC4,1,8.8,3.8
CENPX,2 (active),17.5,12.3
POLR1E,0,-0.5,5.2
DAP3,-1,-16.1,-21.6
BATF2,0,1.7,2.9
LAIR1,0,1.8,3.4
LOC441534,-1,-18.6,-30.7
SLC31A1,1,6.7,0.5
TEAD1,0,6.7,8.5
GJB6,0,1.7,-8
PPP1R1B,0,5.5,-5.4
LOC137829,0,6.8,15.8
NPHS1,0,-7.4,-18
SULT1C2,0,2.6,1.5
LOC440101,2 (active),16.3,18.4
LOC401284,0,6.1,10.5
LOC400870 (retired record),0,5.5,7.4
LOC391356,0,25.8,28.5
ROBO3,1,27.5,21.2
FILIP1,0,5.9,-0.4
AKR1B1,0,0.6,6.2
OR4F6,0,16.5,23.9
CD164,0,4.8,2.7
GRAP,0,25,27.7
TMX3,0,-3,5.8
ZNF225,1,7.2,-0.6
LOC388220,1,14.1,8.3
SPINT1,0,17.8,1.5
CORO6,0,10.9,1.2
